# Some of the results follow. Further columns of the screen follow, without active or inactive calls. Compounds called inactive in the main read-out are mostly missing here. Potencies come from curve fits of mixed quality, noted in brackets.
# Experiment: qHTS Assay for Lipid Storage Modulators in Drosophila S3 Cells;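 for cell number change: cells counted by Cell Tracker Red CMTPX staining in the red channel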
# Details: BODIPY lipid droplet fluorescence, 18-24 h; for cell number change: measured here: cell count max response, cells fed with added oleic acid
# Procedure, shortened: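 Drosophila S3 cells got compounds at several concentrations plus oleic acid (400 uM solution). Laser-scanning cytometry with 488 nm excitation read lipid droplets at 500-530 nm and cells at 575-640 nm. Percent activity was relative to 20 uM Triacsin C.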
# [1] = measured here: cell number channel AC50, cells fed with added oleic acid
# [2] = measured here: lipid fluorescence (Fed channel) AC50, cells fed with added oleic acid
Compound,cell number change [%],AC50 [1],AC50 [2]
Cc1ccc(Nc2ccc(N)cc2S(=O)(=O)O)cc1,-43.6,"29.1 µM [falling, single point]","29.1 µM [falling, single point]"
O=C(CNS(=O)(=O)c1ccc(Br)cc1)Nc1ccc2c(c1)OCCO2,1.66,,"6.51 µM [falling, single point]"
Cn1cccc1-c1cc(C(=O)N/N=C/C=C/c2ccccc2)[nH]n1,10.9,"0.058 µM [rising, full curve, poor fit]",
CCOc1ccc(CCNC(=O)COC(=O)CNS(=O)(=O)c2ccc(NC(C)=O)cc2)cc1OCC,-49.7,"0.164 µM [falling, full curve, poor fit]","0.82 µM [falling, full curve]"
CCCC(=O)Nc1nc2nc(-c3ccccc3)cc(=O)n2[nH]1,6.43,,"29.1 µM [falling, single point]"
CCOC(=O)/C(C#N)=C1/C=CN(c2ccccc2)C=N1,-0.78,,
CCOC(=O)N1CCC(NC(=O)CN2C(=O)CCSc3ccccc32)CC1,19.6,,"6.51 µM [falling, single point]"
Cn1cccc1C(=O)OCC(=O)c1cc2ccccc2o1,-0.753,,
Cc1cc(Br)c(NC(=O)C(C)Sc2nnnn2C)c(Br)c1 (stereo unspecified),-25.9,,"5.8 µM [falling, full curve, poor fit]"
CCCN(Cc1nnc(-c2cccs2)o1)C(=O)c1cc(S(=O)(=O)N2CCOCC2)ccc1C,-3.08,,"0.92 µM [falling, full curve]"
Nc1nc(SCC(=O)Nc2ccc(Oc3ccccc3)cc2)n[nH]1,37.7,"0.0103 µM [rising, full curve, poor fit]",
CCCOc1ccc(C2CC(=O)Nc3cc(OC)c(OC)cc32)cc1 (stereo unspecified),-33.6,"20.6 µM [falling, single point]",
Cn1cccc1Cc1nnc(SCC(=O)NC2CCCC2)n1-c1ccc(F)cc1,0.902,,
COc1ccc(Cl)cc1NC(=O)C(C)N(C)Cc1ccc(C(F)(F)F)cc1 (stereo unspecified),-19.8,,
CCC(=O)NC(=S)Nc1cccc(C(C)=O)c1,19.7,"3.66 µM [rising, single point]","23.1 µM [rising, single point]"
O=C(c1ccc(Cl)c(S(=O)(=O)N2CCCCCC2)c1)N1CCN(CCO)CC1,-44.1,"3.66 µM [falling, full curve]","29.1 µM [falling, single point]"
CCCCCCCSc1nnc(N)s1,2.26,,"0.291 µM [falling, full curve, poor fit]"
CCOc1ccc(CC(C(=O)NN)C(=O)NN)cc1CN(C)C,,,"6.51 µM [falling, single point]"
COc1ccc(CNC(=O)[C@H](CCSC)NC(=O)N2CCn3c2nc2ccccc23)cc1,20.2,,"13 µM [rising, partial curve, poor fit]"
COc1cc(CN(C)CCc2ccccc2)ccc1OCc1ccccc1,-19,"0.731 µM [rising, single point]","29.1 µM [falling, partial curve, poor fit]"

Compound,cell number change [%],AC50 [1],AC50 [2]
O=c1ccc(/C=C/c2ccccc2)nn1Cc1ccccc1,-33.9,"25.9 µM [falling, single point]","29.1 µM [falling, single point]"
O=C(Nc1ccnn1C1CCN(Cc2cccnc2)CC1)c1ccccc1Cl,18.2,"0.058 µM [rising, full curve]",
COc1ccccc1OCC(=O)Nc1ccc(S(=O)(=O)N2CCCC2)cc1,14.5,,
Cc1cc(NC(=O)C(C)SCC(=O)Nc2ccccc2OC(F)F)no1 (stereo unspecified),-14.9,,
O=C1C(=O)N(Cc2cccnc2)C(c2cccc(Br)c2)/C1=C(/O)c1ccc2c(c1)OCO2 (stereo unspecified),2.31,,"29.1 µM [rising, single point]"
Cc1cc(C)c2sc(N(CCCN(C)C)C(=O)c3ccc(S(=O)(=O)N(C)Cc4ccccc4)cc3)nc2c1,-84.8,"18.4 µM [falling, partial curve]",
O=C(NCc1cccnc1)C1CCN(S(=O)(=O)c2cccs2)CC1,18.6,,"3.26 µM [rising, partial curve]"
O/C(=C\Sc1nnc(Cc2ccccc2)o1)c1ccc(Br)cc1,4.05,,
CCOC(=O)c1cc(-c2ccccc2)sc1NC(=O)COC(=O)c1ccc(Cl)c(S(N)(=O)=O)c1,-64.6,"18.4 µM [falling, single point]",
CCOc1nc(-c2ccccc2O)nc2ccccc12,119,"1.3 µM [rising, full curve]","0.92 µM [rising, full curve]"
COC(=O)Cc1ccc(NC(=O)C(c2ccccc2)c2ccccc2)cc1,12.9,,"10.3 µM [rising, partial curve, poor fit]"
CCOCCCNC(=O)C(NC(=O)Cc1cccs1)c1ccc(C)cc1 (stereo unspecified),,"0.651 µM [falling, single point]","0.651 µM [falling, single point]"
CC1(c2ccccc2)NC(=O)N(Cc2ccc([N+](=O)[O-])cc2)C1=O (stereo unspecified),15.9,,"1.64 µM [rising, full curve, poor fit]"
Cc1cnc(NC(=O)Cc2ccc(C)c(C)c2)s1,-23.7,"0.0731 µM [falling, full curve, poor fit]","5.62 µM [rising, single point]"
CCCOc1ccc(C(=O)NCCCn2ccnc2)cc1,9.76,,
Cc1cc(C)c2nc(NNC(=O)c3ccc(S(=O)(=O)N4CC(C)CC(C)C4)cc3)sc2c1 (stereo unspecified),-12.8,,"20.6 µM [falling, single point]"
CC(=O)OC(CC(=O)O)C[N+](C)(C)C (stereo unspecified),36.4,,"6.51 µM [rising, single point]"
CC(C)(C)n1nnnc1C(c1ccc2ncccc2c1)N1CCSCC1 (stereo unspecified),13,,"0.326 µM [rising, full curve, poor fit]"
CC(C)c1ccc(-c2nc(N3CCCC3)nc3n[nH]c(N)c23)cc1,,,"6.51 µM [rising, single point]"

# Sorted by SMILES length (rising): some entries from above
Compound,cell number change [%],AC50 [1],AC50 [2]
CC(=O)OC(CC(=O)O)C[N+](C)(C)C (stereo unspecified),36.4,,"6.51 µM [rising, single point]"
O=c1ccc(/C=C/c2ccccc2)nn1Cc1ccccc1,-33.9,"25.9 µM [falling, single point]","29.1 µM [falling, single point]"
O=C(NCc1cccnc1)C1CCN(S(=O)(=O)c2cccs2)CC1,18.6,,"3.26 µM [rising, partial curve]"

# — PubChem BioAssay AID2685 (National Center for Advancing Translational Sciences (NCATS), 2010)
